The campaign covered roughly 400,000 compounds. About 5,500 (1.4%) were called active. Inconclusive means that the source gave no clear call. Such entries were picked first, then a sample of the others. The call rests on the fitted dose curve; in most records, active means well fitted cell-killing curve with a large enough effect; inconclusive means small, poorly fitted or top-dose-only effect, or effect the other way; inactive means flat fitted curve, though single readings scatter. Where the call is inconclusive, the potency comes from a doubtful curve fit.
Assay: qHTS assay for MDR1-selective chemotherapeutics: Primary screen using the parental adenocarcinoma cell KB-3-1; further: nearly all actives have a fitted effect of over 60% in size
Conditions: KB-3-1 viability, CellTiter-Glo ATP luminescence, 72 h; activity change, negative = cytotoxic: at 46.1 µM (top of the series)
Summary of the method: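 Parental KB-3-1 viability, qHTS format: 72 h compound exposure, 37 °C; CellTiter-Glo; media-only wells and DMSO plates as controls; concentration-effect fits on corrected data.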
On the % scale 0 is the no-effect control and ±100 the full control effect; potency means the concentration at half of the fitted maximal effect.

Structure (SMILES)	Potency	activity change, negative = cytotoxic
CCOC(=O)C1CCN(c2cc(=O)n(-c3ccc(OC)cc3)c(=O)[nH]2)CC1	inconclusive: 16.4 µM [rising, partial curve]	–
Cn1c(SCC(=O)Nc2ccccc2F)nc2c(c1=O)SCC2	inconclusive: 18.4 µM [cytotoxic, partial curve, poor fit]	–
N#CC(C#N)c1ccnc2ccccc12	inactive	–
O=C(c1ccc2c(c1)CCN2S(=O)(=O)c1ccccc1)N1CCN(c2ccc(F)cc2)CC1	inconclusive: 13 µM [cytotoxic, partial curve, poor fit]	–
O=C(NCC(c1cccs1)N1CCOCC1)c1ccccc1NS(=O)(=O)c1ccc(Cl)cc1 (centres undefined)	inconclusive: 8.2 µM [cytotoxic, partial curve, poor fit]	–
CC(C)(C)OC(=O)N/N=C/c1cn(-c2ccccc2)nc1-c1cccnc1	inconclusive: 25.9 µM [rising, single point]	–
Cc1c(C2=CCN(S(=O)(=O)c3ccc(Cl)cc3)CC2)c2ccccc2n1C	inconclusive: 14.6 µM [cytotoxic, partial curve]	–
CC(=O)Oc1ccccc1C(=O)C=Cc1cccc([N+](=O)[O-])c1	active: 14.6 µM	–
C[C@H](NC(=O)c1[nH]cnc1C(=O)Nc1ccc(Cl)cc1)c1ccccc1	inconclusive: 18.4 µM [cytotoxic, single point]	–
Cc1cccc2nc(COc3ccc4ccccc4c3Br)cn12	–	inconclusive: -2.6%
O=c1cc(CN2CCN(Cc3ccccc3)CC2)c2cc3c(cc2o1)CCC3	inactive	–
CS(=O)(=O)N1Cc2cc(C(=O)NCC3CC3)nc(-c3cccc(-c4cccnc4)c3)c2[C@@H]1CCO	inconclusive: 29.1 µM [cytotoxic, single point]	–
Cc1cc(N2CCN(Cc3nc(-c4ccc(Cl)cc4)oc3C)CC2)cc(C)n1	inconclusive: 29.1 µM [cytotoxic, single point]	–
COc1ccc(NC(=O)/C(C#N)=C/c2ccc(OCc3cc(=O)n4nc(C)sc4n3)cc2)cc1	inconclusive: 0.0291 µM [rising, full curve]	–
CC1=C(C(=O)NC2CCCc3c2cnn3-c2cccc(C)c2C)OCCO1 (centres undefined)	inconclusive: 23.1 µM [cytotoxic, partial curve, poor fit]	–
CC1(Cc2ccc(Cl)cc2)C(=O)Nc2c(Cl)cccc21 (centres undefined)	inactive	–
Cc1cc(=O)[nH]c(SCCCOc2ccccc2Cl)n1	inconclusive: 20.6 µM [cytotoxic, single point]	–
O[C@H]1C[C@H](c2ccccc2)N(Cc2cccs2)C[C@@H]1n1cc(-c2ccc(F)cc2)nn1	inconclusive: 29.1 µM [cytotoxic, single point]	–
COc1ccc(S(=O)(=O)n2nc(OC(C)=O)cc2N(C(C)=O)C(C)=O)cc1	inconclusive: 32.6 µM [rising, single point]	–
C#CCCc1cocc1/C=[N+](\[O-])c1ccc(C(=O)OCC)cc1	inactive	–
CC(C)(C)C(=O)N1CCN(c2ccnc3cc(Cl)ccc23)CC1	inactive	–
Cc1cccc(NC(=O)c2cc3c([nH]c4ccccc43)c(C)n2)c1C	inactive	–

Structure (SMILES)	Potency	activity change, negative = cytotoxic
COc1ccccc1C(=O)Nc1ccccc1N1CCCCC1	inactive	–
O=C(Cc1ccc(Br)cc1)Nc1cccc(-c2cn3c(n2)SCC3)c1	inconclusive: 29.1 µM [cytotoxic, single point]	–
Cc1ccc(SCC(=O)OCC(=O)N(CCC#N)c2ccccc2)cc1C	inconclusive: 29.1 µM [cytotoxic, single point]	–
N/C(CCS(=O)(=O)c1ccc(Cl)cc1)=N\OC(=O)c1ccc(Cl)cc1	inactive	–
CCOc1cc(C(=O)CSc2nnc(CNc3ccc(Cl)cc3)o2)ccc1NC(=O)CC	inconclusive: 29.1 µM [cytotoxic, single point]	–
FC(F)(F)c1nc(=S)c2ccccc2[nH]1	inactive	–
NC(=O)c1sc2nc(-c3ccccc3)ccc2c1N	inconclusive: 6.51 µM [cytotoxic, full curve, poor fit]	–
CCOC(=O)[C@]12CCCC=C1N(Cc1ccc(Cl)cc1Cl)C(=O)[C@H](CC(=O)NCCc1ccccc1OC)C2	inconclusive: 29.1 µM [cytotoxic, single point]	–
COc1ccc(NC(=O)Cn2nnc(-c3ccccc3NS(=O)(=O)c3ccc(OC)cc3)n2)cc1	inconclusive: 18.4 µM [cytotoxic, single point]	–
O=C(N/N=C/c1c[nH]c2ccccc12)c1cc2ccccc2o1	inconclusive: 25.9 µM [cytotoxic, single point]	–
Cc1cc(C)cc(NC(=O)c2cc(S(=O)(=O)NCc3ccco3)ccc2F)c1	inactive	–
O=c1c2ccccc2nc(-c2ccoc2)n1CCc1ccccc1	inconclusive: 18.4 µM [cytotoxic, single point]	–
CCCn1c(C(C)Nc2nc(-c3ccc(Cl)c([N+](=O)[O-])c3)cs2)nc2cc(Cl)c(N3CCCCC3)cc21 (centres undefined)	inconclusive: 29.1 µM [cytotoxic, single point]	–
Cc1cc(Br)ccc1OCCn1ccnc1	inactive	–
CCOC(=O)C1=C(C)NC2=C(C(=O)CCC2)C1c1cn(Cc2ccc(Cl)cc2Cl)nc1-c1ccccc1 (centres undefined)	active: 16.4 µM	–
CCOC(=O)C1CCN(c2ccc(-c3cccs3)nn2)CC1	inconclusive: 16.4 µM [cytotoxic, single point]	–
COc1ccc(NC(=O)CSc2nc3c(c(=O)n2-c2ccccc2)SCC3)c(OC)c1	–	inconclusive: 30.6%
Cc1cc(C)cc(-n2c(C)cc(/C=N/NC(=O)CSc3ncccn3)c2C)c1	inconclusive: 29.1 µM [cytotoxic, single point]	–
O=C(COc1ccccc1)OCC(=O)c1ccc(O)cc1O	inactive	–
COCCNc1nc(Nc2ccccc2Cl)c2sccc2n1	inconclusive: 29.1 µM [cytotoxic, single point]	–
COc1ccc([N+](=O)[O-])cc1COc1cc(C)cc2oc(=O)cc(-c3ccccc3)c12	active: 20.6 µM	–
CC1C(=O)N(Cc2cn(CCC3OCCCO3)nn2)CCS(=O)(=O)N1Cc1ccc(-c2ccc(Cl)cc2)cc1 (centres undefined)	inconclusive: 23.1 µM [cytotoxic, single point]	–

3 structures out of the list, sorted by length of the SMILES, high to low:
Structure (SMILES)	Potency	activity change, negative = cytotoxic
CC1C(=O)N(Cc2cn(CCC3OCCCO3)nn2)CCS(=O)(=O)N1Cc1ccc(-c2ccc(Cl)cc2)cc1 (centres undefined)	inconclusive: 23.1 µM [cytotoxic, single point]	–
COc1ccc([N+](=O)[O-])cc1COc1cc(C)cc2oc(=O)cc(-c3ccccc3)c12	active: 20.6 µM	–
CC1=C(C(=O)NC2CCCc3c2cnn3-c2cccc(C)c2C)OCCO1 (centres undefined)	inconclusive: 23.1 µM [cytotoxic, partial curve, poor fit]	–

Source: PubChem BioAssay AID1347075 (National Center for Advancing Translational Sciences (NCATS), 2019)
